# Reference: PubChem BioAssay AID1508600 (Functional Genomics Laboratory (NCATS/FGL), 2020)
# The whole screen tested about 53,000 sequences, of which about 3,700 (7%) were called active.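 Rule for the calls: active = gene knockdowns whose robust z-score for IL-1 alpha signal is at least 2 or at most -2, so actives lie on both sides; inactive = the rest.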 The list shows a part of the results.
# Assay: Components of the Cytosolic LPS Sensing Pathway: Gene Identification via Genome-wide siRNA Screen;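 note: robust z of the log signal after scaling to non-targeting control siRNA wells of the plate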
# Conditions: RAW264.7 macrophages, IL-1a HTRF, actives lie on both sides, screened at 100 nM (by protocol), cells primed 5 h with Pam3CSK4 first
# Procedure, shortened: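 Read-out: IL-1a HTRF on supernatant, divided by plate negative-control median ×100, log-transformed and converted to robust z-score. Cells were RAW264.7 given 100 nM siRNA, Pam3CSK4-primed 5 hours, then LipidA-transfected 24 hour.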
row,Sequence,z-score
1,GGAAGAGGAGGUGACAUACTT against Exd1,inactive: -1.15
2,GCUUGUGGUCUUUAUCUUCTT against Olfr1490,inactive: 0.596
3,GGCAAUGUUUUUCUUGUUGTT against 9330132A10Rik,inactive: -1.12
4,GCCUAAAGCGGCCAAACCATT against H1f4,inactive: 0.905
5,CCCUUUCAUUGUGCAUUAATT against Hdhd2,active: -2.22
6,GCUAUUUUUGUGGGUGAUUTT against Otx2,inactive: -0.315
7,GGAUAAGAAACGCAGAGUUTT against Dnmt1,inactive: -0.83
8,CGGCGAGGAGAAGAUAAAATT against Vps36,inactive: 0.626
9,GGCAGCAUAAGAGCUGUUCTT against Id3,inactive: 0.106
10,CCUAUUGUAGCAAGUUACATT against H3c7,inactive: 1.15
11,CCCAUGAACCUUAUUUGAATT against Ino80c,inactive: -0.268
12,GGUUGGGCUGCCAAGUUUGTT against Fdx1,inactive: 1.96
13,GGGUGUUGGAAAUUAAUCUTT against Rpl31,inactive: 0.79
14,GCACCGUGUCGUUGACUUGTT against Trim56,inactive: 0.566
15,GGUGAUAAAUCCAAAAAAGTT against Cpne5,inactive: -0.234
16,CGACUGCAUUCAAACUACUTT against Uqcc2,inactive: -0.0188
17,GCCAGUACAUUGUCCAUGATT against Znf41-ps,inactive: -0.269
18,GGUCAUUCCAGCAAGGGUATT against D130079A08Rik,inactive: 1.43
19,GGAGCAUCUCUCCAGAUUGTT against Igsf9,inactive: 0.567
20,GCCAUUACUAUGAUUAUCCTT against Itgb1,inactive: -1.39
21,GCAGUUAGGUGUCGUAUAUTT against Lrpprc,inactive: 0.894
22,GGAGCAUCUCAAACCUUCATT against Lancl3,active: -3.8
23,GCGAAUAGGAUCCAGCUAUTT against Sin3b,inactive: 0.792
24,GCGGGAUUGGUCAUUCCACTT against Mrpl45,active: 2.97
25,GCUAGGAUUUCAGCAUAUATT against Adra1a,inactive: 0.29
26,GGCAAAAUGUAUGGUAGAATT against Tead1,inactive: -0.326
27,GGUACUCAUAAAACAUGAATT against Ticam2,inactive: -1.04

# 2 entries from above, bar-delimited:
row | Sequence | z-score
4 | GCCUAAAGCGGCCAAACCATT against H1f4 | inactive: 0.905
10 | CCUAUUGUAGCAAGUUACATT against H3c7 | inactive: 1.15

# Next entries follow:

row,Sequence,z-score
1,GGCAGCAUUGCAAUUUCUATT against Urb2,inactive: -0.735
2,GGGCCACUGCCAAAUACUATT against 2510009E07Rik,active: 3.33
3,GGAUUUGAGUGGUAAUGAATT against Tm2d1,active: -2.2
4,GGGUUGACCACUAUUUCUGTT against Olfr1338,inactive: -1.06
5,GGCAAUUGUCUCAUUCUGATT against Olfr631,inactive: 0.806
6,GGAGAUCAAUGAGAAGAUCTT against Akap3,inactive: 0.652
7,GGGACCUACUUUGUGGCUCTT against Tmem72,inactive: -0.642
8,GCUGAGAACACAACAGCUUTT against Ap5s1,inactive: -1.12
9,GGGCAAAACAGAAAUUCAATT against Sypl,inactive: 0.449
10,GUGUUUUAGUGCGAGUCCUTT against Klrb1a,inactive: 0.309
11,GGUCUCCCUUUUCAAUCGCTT against Rbpjl,inactive: -0.613
12,CCCUGGAGUAAACUCAAAUTT against Onecut2,inactive: 1.15
13,GGACCUCAGAGAAGUGCAGTT against Ssbp4,inactive: -0.308
14,GGCUUAAUUGUUUGUGUGATT against Slc18a2,inactive: -0.0175
15,GGGAAAAGUAUCCUCUGUUTT against Olfr877,inactive: -0.968
16,GGUGUGAUGAAAGUUUUAGTT against Rell1,inactive: 1.05
17,GGACAUCAACGACAACAAUTT against Pcdhgc3,inactive: 0.35
18,CGGUCACAUCUCUACUGCATT against Tas2r138,inactive: -0.833
19,GGCGCAAGCAAAGAAACAUTT against Pbx3,inactive: 0.00735
20,GGGAUUGACAUUGGAUGGGTT against Gabarap,inactive: -0.67
21,GGAAAUCAGAAUUCCAAAATT against Cntn6,inactive: 1.56
22,GGGAAGGGUGAUGCAGAUCTT against Prkcq,inactive: -1.06
23,GCCCAGUACGAAGAAAUCATT against Dkk4,inactive: -0.346
24,GCGACCAUGACAAACACAATT against Brd7,inactive: -0.651
25,CCAGUAGGACUAGCAACACTT against Gast,inactive: -0.275
26,CGACUGUCAGAUUACAACATT against Ubl4a,inactive: 0.0955
